Source: the supplement of paper PMC10849652
This is one part of the list.

The chains behind the UniProt entries cited, without tags or fusion partners. Where a name states a change or a piece, a line headed by the entry shows the natural chain unless it says otherwise.
UniProt Q9H0E9, whole entry, looked up: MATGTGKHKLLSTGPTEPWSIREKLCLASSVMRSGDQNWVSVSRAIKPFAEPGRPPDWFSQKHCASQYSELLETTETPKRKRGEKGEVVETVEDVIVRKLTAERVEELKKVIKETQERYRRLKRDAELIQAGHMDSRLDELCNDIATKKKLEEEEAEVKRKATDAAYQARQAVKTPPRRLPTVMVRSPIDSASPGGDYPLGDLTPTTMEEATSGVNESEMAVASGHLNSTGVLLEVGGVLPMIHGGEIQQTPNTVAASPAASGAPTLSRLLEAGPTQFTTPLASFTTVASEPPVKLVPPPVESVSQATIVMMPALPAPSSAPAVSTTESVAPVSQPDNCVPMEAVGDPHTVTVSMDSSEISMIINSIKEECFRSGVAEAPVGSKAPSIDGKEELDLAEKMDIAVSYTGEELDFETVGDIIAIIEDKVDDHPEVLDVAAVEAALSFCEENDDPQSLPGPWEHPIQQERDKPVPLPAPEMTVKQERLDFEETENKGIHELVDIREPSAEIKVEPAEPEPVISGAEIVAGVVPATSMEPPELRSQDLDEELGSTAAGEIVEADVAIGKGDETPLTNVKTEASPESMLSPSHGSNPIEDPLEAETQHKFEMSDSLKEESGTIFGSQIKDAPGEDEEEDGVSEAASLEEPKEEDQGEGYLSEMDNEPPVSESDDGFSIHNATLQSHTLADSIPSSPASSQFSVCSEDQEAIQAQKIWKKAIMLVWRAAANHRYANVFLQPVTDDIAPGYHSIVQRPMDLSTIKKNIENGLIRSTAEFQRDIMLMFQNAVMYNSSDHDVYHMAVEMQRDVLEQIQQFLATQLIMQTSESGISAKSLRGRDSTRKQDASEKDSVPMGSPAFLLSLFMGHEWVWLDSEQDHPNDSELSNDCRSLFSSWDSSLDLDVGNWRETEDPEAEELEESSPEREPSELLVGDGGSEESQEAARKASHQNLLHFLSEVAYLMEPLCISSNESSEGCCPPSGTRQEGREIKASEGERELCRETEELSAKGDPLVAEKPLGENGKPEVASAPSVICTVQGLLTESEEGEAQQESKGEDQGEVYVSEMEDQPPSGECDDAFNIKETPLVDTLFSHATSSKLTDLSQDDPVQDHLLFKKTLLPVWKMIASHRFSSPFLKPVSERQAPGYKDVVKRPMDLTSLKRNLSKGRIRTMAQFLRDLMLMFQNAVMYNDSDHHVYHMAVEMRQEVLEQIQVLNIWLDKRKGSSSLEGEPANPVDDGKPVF
UniProt P46379: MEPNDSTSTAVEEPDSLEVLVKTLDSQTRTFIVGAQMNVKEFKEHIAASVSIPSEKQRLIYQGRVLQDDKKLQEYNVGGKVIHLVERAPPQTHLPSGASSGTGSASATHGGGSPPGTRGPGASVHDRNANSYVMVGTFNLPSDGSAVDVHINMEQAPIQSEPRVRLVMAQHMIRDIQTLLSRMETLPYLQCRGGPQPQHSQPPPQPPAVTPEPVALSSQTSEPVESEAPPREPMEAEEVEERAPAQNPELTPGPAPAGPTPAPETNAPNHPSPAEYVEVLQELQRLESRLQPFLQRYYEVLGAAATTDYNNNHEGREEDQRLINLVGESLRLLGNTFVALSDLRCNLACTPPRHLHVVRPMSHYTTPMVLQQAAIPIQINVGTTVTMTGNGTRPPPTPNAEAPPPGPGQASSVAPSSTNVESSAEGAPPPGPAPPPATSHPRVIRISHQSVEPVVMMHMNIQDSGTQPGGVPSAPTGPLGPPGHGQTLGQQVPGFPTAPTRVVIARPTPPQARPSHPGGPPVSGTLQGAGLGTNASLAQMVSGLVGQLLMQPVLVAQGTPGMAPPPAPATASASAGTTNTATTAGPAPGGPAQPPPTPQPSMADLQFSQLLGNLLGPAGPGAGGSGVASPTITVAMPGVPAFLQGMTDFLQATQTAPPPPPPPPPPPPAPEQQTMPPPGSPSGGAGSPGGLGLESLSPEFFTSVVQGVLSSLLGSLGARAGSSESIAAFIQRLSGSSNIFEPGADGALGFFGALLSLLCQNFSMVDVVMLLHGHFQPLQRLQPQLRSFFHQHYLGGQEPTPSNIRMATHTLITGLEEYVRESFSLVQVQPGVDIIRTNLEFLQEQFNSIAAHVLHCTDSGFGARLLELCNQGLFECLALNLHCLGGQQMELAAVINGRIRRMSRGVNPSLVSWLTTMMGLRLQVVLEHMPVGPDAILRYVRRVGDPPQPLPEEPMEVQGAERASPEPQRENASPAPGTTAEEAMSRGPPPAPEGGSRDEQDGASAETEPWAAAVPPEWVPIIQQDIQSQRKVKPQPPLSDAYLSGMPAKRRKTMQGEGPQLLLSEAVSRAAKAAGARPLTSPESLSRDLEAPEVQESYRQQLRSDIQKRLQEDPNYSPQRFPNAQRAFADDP
UniProt Q99933: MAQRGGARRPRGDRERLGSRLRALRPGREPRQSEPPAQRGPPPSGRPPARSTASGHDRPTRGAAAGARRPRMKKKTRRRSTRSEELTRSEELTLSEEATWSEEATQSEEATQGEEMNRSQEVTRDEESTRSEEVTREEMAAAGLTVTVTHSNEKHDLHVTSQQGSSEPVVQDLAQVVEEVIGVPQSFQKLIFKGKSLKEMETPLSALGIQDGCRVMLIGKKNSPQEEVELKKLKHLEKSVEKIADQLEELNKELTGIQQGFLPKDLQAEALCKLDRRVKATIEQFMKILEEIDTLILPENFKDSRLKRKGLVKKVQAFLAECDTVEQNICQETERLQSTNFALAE
UniProt Q8TDH9: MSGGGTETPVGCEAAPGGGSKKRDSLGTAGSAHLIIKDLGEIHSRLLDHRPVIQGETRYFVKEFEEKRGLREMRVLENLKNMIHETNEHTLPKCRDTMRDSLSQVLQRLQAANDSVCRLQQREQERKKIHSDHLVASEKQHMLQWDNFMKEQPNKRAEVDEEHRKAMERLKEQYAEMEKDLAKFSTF
UniProt Q9UL15: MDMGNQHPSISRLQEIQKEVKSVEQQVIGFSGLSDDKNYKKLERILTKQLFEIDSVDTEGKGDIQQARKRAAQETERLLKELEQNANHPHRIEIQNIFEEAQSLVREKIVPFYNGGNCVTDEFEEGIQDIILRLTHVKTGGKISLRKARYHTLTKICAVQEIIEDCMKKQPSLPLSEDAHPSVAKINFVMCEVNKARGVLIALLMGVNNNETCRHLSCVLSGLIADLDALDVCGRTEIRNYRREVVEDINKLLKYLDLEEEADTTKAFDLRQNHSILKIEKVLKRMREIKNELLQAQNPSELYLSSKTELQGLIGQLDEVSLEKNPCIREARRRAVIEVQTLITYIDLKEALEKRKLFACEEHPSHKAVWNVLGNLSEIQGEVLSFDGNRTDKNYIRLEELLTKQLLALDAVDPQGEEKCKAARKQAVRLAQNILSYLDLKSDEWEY
UniProt Q8TDN6: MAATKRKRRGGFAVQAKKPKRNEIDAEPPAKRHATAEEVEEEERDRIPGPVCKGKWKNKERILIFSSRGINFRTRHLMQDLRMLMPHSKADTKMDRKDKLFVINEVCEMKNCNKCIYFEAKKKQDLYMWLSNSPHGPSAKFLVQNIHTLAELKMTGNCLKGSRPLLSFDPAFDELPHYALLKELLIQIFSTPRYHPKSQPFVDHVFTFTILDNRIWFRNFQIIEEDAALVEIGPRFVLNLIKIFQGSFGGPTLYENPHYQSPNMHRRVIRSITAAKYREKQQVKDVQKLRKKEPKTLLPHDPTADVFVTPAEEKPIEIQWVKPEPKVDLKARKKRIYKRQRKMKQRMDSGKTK
UniProt Q86WA6: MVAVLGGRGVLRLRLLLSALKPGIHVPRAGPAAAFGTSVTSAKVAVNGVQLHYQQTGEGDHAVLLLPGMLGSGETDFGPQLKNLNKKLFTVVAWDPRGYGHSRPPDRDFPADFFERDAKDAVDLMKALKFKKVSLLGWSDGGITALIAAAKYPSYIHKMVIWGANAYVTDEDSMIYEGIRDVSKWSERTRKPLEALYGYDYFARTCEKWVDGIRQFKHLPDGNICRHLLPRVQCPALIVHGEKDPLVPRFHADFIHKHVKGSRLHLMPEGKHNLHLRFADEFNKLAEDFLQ
UniProt Q96GS4: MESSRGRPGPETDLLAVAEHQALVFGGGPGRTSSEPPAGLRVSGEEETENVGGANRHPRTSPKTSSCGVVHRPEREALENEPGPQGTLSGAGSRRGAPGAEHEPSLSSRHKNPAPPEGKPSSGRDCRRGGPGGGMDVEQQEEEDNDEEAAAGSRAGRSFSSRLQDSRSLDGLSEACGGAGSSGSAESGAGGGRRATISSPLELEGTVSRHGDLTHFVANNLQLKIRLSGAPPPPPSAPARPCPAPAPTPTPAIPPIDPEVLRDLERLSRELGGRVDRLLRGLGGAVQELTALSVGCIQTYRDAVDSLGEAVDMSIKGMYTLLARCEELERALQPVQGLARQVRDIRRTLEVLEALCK
UniProt O15392, whole entry, looked up: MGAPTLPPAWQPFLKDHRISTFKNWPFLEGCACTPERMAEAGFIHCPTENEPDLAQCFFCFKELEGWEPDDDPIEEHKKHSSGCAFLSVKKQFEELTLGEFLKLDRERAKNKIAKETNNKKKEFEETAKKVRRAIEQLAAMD
UniProt O95816: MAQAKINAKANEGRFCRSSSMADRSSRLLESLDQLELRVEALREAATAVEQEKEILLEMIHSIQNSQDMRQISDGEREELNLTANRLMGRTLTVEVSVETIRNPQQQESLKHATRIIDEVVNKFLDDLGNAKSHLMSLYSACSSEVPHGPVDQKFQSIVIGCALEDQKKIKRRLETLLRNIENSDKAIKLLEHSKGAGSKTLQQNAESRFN
UniProt Q99728: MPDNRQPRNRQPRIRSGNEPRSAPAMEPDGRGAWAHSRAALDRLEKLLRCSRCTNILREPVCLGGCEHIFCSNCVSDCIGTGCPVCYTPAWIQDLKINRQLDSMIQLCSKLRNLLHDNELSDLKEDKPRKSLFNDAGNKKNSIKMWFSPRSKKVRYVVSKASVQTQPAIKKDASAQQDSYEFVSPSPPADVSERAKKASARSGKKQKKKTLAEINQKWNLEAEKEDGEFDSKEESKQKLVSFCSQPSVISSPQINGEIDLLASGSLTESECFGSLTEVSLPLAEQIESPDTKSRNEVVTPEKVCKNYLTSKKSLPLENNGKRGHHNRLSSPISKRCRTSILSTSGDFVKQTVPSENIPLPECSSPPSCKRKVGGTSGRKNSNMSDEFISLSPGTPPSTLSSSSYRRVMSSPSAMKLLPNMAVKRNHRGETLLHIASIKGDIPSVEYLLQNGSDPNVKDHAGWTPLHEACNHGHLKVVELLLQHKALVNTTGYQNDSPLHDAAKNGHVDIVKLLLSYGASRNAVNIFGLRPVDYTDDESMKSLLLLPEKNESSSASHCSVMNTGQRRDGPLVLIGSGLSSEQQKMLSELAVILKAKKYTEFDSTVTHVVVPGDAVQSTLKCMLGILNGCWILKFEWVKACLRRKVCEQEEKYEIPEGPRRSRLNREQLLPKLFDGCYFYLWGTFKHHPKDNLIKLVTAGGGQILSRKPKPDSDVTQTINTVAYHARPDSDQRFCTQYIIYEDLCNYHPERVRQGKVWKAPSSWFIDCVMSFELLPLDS
UniProt P35613: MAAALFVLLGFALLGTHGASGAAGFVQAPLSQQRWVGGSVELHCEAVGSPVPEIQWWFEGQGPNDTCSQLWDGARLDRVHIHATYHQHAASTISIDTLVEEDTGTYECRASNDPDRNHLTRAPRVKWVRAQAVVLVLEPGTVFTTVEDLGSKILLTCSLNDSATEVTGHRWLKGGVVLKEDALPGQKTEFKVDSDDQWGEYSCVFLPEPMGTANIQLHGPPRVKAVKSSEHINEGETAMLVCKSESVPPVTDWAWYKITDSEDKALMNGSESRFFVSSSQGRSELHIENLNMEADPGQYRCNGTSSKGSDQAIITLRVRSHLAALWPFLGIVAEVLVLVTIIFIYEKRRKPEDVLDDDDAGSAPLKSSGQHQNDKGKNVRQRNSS
UniProt O75934: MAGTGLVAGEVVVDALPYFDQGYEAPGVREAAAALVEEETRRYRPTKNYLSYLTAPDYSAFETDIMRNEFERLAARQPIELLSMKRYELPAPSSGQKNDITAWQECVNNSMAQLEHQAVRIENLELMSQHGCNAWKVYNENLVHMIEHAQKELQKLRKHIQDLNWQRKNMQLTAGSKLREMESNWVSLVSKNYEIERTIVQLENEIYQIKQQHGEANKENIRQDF
UniProt Q6QNY0: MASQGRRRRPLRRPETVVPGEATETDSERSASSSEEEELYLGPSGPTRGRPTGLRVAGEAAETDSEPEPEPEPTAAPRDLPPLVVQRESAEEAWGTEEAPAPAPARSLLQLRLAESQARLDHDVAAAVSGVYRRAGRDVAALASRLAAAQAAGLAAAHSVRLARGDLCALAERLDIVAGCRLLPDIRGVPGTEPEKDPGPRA

What follows are targets tested with C1=CC2=C(C=CC(=C2)/C=C\3/C(=O)NC(=NCC4=CC=CS4)S3)N=C1 (assay: log2 fold change, soluble protein after heating vs DMSO (PISA); higher = thermal stabilisation; K562 lysate, 10 uM; active = over 0.2 and 3.5 SD of the protein, either way, in both replicates (recomputed)).
Outline: (§1)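 Quantification was by TMTpro 16plex LC-MS/MS with equalised channel sums, applied to the supernatant after 21,000xg for 90 min. Samples were crude K562 extract at 1 mg/mL protein in PBS pH 7.4 with 1 mM MgCl2, treated with 10 μM compound for 30 min, heated for 3 min across 48°C-58°C, pooled and brought to 0.5% NP-40 at 4°C. Values are log-two fold changes in thermal stability relative to solvent controls, from duplicates.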

log2 fold change, inactive:
BRD8 isoform 2 (UniProt Q9H0E9) 0.023, BAIAP2 (UniProt Q9UQB8) -0.01, BAG6 isoform 3 (UniProt P46379) 0.029, BPTF (UniProt Q12830) -0.002, BAG1 (UniProt Q99933) -0.017, BCL7B (UniProt Q9BQE9) -0.022, BCLAF1 (UniProt Q9NYF8) 0.007, BLOC1S5 (UniProt Q8TDH9) 0.041, BTN2A1 (UniProt Q7KYR7) -0.006, BAG5 isoform 2 (UniProt Q9UL15) -0.068, BCL2L2 isoform 2 (UniProt Q92843) 0.025, BRCA1 isoform 7 (UniProt P38398) -0.029, BRIX1 (UniProt Q8TDN6) 0.005, BCL7C isoform 2 (UniProt Q8WUZ0) 0.02, BTBD6 (UniProt Q96KE9) -0.09, BCOR (UniProt Q6W2J9) 0, BORCS5 (UniProt Q969J3) 0.015, BPHL (UniProt Q86WA6) 0.089, BET1 (UniProt O15155) 0.033, BNIP2 (UniProt J3KN59) 0.065, BORCS6 (UniProt Q96GS4) -0.061, BIRC5 (UniProt O15392) 0.096, BCAR1 isoform 6 (UniProt P56945) 0.048, BAG2 (UniProt O95816) -0.002, BARD1 (UniProt Q99728) -0.213, BTAF1 (UniProt O14981) -0.002, BSG (UniProt P35613) 0.028, BCAS2 (UniProt O75934) -0.005, BCKDHB (UniProt P21953) -0.089, BTF3L4 (UniProt Q96K17) -0.016, BID isoform 2 (UniProt P55957) 0.013, BCL2L13 (UniProt Q9BXK5) 0.052, BCKDK (UniProt O14874) 0.062, BLOC1S3 (UniProt Q6QNY0) -0.01

What follows are targets tested with C1=CC2=NC=CN=C2C=C1/C=C/3\C(=O)NC(=O)S3 in the same assay as above.
Outline: as §1

log2 fold change, inactive:
BRD8 isoform 2 (UniProt Q9H0E9) -0.003, BAIAP2 (UniProt Q9UQB8) -0.027, BAG6 isoform 3 (UniProt P46379) 0, BPTF (UniProt Q12830) -0.027, BAG1 (UniProt Q99933) -0.024, BCL7B (UniProt Q9BQE9) 0.055, BCLAF1 (UniProt Q9NYF8) -0.02, BLOC1S5 (UniProt Q8TDH9) 0.004, BTN2A1 (UniProt Q7KYR7) -0.046, BAG5 isoform 2 (UniProt Q9UL15) -0.013, BCL2L2 isoform 2 (UniProt Q92843) -0.029, BRCA1 isoform 7 (UniProt P38398) -0.041, BRIX1 (UniProt Q8TDN6) -0.009, BCL7C isoform 2 (UniProt Q8WUZ0) -0.041, BTBD6 (UniProt Q96KE9) -0.077, BCOR (UniProt Q6W2J9) -0.076, BORCS5 (UniProt Q969J3) -0.036, BPHL (UniProt Q86WA6) -0.135, BET1 (UniProt O15155) 0.08, BNIP2 (UniProt J3KN59) 0.006, BORCS6 (UniProt Q96GS4) -0.005, BIRC5 (UniProt O15392) -0.024, BCAR1 isoform 6 (UniProt P56945) -0.019, BAG2 (UniProt O95816) -0.012, BARD1 (UniProt Q99728) 0.206, BTAF1 (UniProt O14981) -0.003, BSG (UniProt P35613) 0.038, BCAS2 (UniProt O75934) 0.037, BCKDHB (UniProt P21953) 0.049, BTF3L4 (UniProt Q96K17) -0.01, BID isoform 2 (UniProt P55957) 0.087, BCL2L13 (UniProt Q9BXK5) 0.033, BCKDK (UniProt O14874) -0.007, BLOC1S3 (UniProt Q6QNY0) -0.001
